Some of the results follow.
Legend:
Experiment in all cases: log2 fold change, soluble protein after heating vs DMSO (PISA); higher = thermal stabilisation; K562 lysate, 10 uM; active = over 0.2 and 3.5 SD of the protein, either way, in both replicates (recomputed)
erlotinib = compound: C#Cc1cccc(Nc2ncnc3cc(OCCOC)c(OCCOC)cc23)c1 [erlotinib]
Procedure, shortened: (§1)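 Values give the log-two fold change in thermal stability against solvent controls, from duplicates. Crude K562 extract at 1 mg/mL protein, made by dounce homogenisation in PBS pH 7.4 with 1 mM MgCl2, was treated with 10 μM compound for 30 min. After 3 min heating across 48°C-58°C, aliquots were pooled, adjusted to 0.5% NP-40 at 4°C and centrifuged at 21,000xg for 90 min. The supernatant was measured by TMTpro 16plex LC-MS/MS with channel sums equalised.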

Sequences of proteins named here, by UniProt entry; tags and fusion partners are left off. A change or cut given only in a name is not applied to a line headed by its entry.
UniProt O43516: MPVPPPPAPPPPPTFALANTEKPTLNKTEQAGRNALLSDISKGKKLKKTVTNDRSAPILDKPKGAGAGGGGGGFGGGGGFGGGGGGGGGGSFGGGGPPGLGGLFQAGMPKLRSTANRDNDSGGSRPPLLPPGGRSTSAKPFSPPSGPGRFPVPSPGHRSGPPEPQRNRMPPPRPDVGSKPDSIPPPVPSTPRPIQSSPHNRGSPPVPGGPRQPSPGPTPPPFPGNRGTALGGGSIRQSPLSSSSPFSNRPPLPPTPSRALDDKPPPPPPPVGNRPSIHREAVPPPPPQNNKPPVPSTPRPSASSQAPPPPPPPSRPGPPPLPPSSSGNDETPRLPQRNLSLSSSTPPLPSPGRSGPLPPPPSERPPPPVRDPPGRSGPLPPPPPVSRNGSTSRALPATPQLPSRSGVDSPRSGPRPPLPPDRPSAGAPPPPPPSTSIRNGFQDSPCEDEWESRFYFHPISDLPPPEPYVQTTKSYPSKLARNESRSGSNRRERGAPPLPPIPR
UniProt Q4G0F5, whole entry, looked up: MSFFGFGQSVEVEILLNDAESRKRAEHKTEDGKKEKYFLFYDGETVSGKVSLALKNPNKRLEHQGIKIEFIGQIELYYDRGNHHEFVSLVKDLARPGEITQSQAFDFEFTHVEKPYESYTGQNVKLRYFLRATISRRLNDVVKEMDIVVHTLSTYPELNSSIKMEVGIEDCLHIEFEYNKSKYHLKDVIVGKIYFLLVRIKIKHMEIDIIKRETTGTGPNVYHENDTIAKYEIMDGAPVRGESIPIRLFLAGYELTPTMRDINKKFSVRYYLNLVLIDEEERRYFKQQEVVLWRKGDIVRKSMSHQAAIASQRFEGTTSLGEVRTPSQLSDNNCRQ
UniProt Q709C8: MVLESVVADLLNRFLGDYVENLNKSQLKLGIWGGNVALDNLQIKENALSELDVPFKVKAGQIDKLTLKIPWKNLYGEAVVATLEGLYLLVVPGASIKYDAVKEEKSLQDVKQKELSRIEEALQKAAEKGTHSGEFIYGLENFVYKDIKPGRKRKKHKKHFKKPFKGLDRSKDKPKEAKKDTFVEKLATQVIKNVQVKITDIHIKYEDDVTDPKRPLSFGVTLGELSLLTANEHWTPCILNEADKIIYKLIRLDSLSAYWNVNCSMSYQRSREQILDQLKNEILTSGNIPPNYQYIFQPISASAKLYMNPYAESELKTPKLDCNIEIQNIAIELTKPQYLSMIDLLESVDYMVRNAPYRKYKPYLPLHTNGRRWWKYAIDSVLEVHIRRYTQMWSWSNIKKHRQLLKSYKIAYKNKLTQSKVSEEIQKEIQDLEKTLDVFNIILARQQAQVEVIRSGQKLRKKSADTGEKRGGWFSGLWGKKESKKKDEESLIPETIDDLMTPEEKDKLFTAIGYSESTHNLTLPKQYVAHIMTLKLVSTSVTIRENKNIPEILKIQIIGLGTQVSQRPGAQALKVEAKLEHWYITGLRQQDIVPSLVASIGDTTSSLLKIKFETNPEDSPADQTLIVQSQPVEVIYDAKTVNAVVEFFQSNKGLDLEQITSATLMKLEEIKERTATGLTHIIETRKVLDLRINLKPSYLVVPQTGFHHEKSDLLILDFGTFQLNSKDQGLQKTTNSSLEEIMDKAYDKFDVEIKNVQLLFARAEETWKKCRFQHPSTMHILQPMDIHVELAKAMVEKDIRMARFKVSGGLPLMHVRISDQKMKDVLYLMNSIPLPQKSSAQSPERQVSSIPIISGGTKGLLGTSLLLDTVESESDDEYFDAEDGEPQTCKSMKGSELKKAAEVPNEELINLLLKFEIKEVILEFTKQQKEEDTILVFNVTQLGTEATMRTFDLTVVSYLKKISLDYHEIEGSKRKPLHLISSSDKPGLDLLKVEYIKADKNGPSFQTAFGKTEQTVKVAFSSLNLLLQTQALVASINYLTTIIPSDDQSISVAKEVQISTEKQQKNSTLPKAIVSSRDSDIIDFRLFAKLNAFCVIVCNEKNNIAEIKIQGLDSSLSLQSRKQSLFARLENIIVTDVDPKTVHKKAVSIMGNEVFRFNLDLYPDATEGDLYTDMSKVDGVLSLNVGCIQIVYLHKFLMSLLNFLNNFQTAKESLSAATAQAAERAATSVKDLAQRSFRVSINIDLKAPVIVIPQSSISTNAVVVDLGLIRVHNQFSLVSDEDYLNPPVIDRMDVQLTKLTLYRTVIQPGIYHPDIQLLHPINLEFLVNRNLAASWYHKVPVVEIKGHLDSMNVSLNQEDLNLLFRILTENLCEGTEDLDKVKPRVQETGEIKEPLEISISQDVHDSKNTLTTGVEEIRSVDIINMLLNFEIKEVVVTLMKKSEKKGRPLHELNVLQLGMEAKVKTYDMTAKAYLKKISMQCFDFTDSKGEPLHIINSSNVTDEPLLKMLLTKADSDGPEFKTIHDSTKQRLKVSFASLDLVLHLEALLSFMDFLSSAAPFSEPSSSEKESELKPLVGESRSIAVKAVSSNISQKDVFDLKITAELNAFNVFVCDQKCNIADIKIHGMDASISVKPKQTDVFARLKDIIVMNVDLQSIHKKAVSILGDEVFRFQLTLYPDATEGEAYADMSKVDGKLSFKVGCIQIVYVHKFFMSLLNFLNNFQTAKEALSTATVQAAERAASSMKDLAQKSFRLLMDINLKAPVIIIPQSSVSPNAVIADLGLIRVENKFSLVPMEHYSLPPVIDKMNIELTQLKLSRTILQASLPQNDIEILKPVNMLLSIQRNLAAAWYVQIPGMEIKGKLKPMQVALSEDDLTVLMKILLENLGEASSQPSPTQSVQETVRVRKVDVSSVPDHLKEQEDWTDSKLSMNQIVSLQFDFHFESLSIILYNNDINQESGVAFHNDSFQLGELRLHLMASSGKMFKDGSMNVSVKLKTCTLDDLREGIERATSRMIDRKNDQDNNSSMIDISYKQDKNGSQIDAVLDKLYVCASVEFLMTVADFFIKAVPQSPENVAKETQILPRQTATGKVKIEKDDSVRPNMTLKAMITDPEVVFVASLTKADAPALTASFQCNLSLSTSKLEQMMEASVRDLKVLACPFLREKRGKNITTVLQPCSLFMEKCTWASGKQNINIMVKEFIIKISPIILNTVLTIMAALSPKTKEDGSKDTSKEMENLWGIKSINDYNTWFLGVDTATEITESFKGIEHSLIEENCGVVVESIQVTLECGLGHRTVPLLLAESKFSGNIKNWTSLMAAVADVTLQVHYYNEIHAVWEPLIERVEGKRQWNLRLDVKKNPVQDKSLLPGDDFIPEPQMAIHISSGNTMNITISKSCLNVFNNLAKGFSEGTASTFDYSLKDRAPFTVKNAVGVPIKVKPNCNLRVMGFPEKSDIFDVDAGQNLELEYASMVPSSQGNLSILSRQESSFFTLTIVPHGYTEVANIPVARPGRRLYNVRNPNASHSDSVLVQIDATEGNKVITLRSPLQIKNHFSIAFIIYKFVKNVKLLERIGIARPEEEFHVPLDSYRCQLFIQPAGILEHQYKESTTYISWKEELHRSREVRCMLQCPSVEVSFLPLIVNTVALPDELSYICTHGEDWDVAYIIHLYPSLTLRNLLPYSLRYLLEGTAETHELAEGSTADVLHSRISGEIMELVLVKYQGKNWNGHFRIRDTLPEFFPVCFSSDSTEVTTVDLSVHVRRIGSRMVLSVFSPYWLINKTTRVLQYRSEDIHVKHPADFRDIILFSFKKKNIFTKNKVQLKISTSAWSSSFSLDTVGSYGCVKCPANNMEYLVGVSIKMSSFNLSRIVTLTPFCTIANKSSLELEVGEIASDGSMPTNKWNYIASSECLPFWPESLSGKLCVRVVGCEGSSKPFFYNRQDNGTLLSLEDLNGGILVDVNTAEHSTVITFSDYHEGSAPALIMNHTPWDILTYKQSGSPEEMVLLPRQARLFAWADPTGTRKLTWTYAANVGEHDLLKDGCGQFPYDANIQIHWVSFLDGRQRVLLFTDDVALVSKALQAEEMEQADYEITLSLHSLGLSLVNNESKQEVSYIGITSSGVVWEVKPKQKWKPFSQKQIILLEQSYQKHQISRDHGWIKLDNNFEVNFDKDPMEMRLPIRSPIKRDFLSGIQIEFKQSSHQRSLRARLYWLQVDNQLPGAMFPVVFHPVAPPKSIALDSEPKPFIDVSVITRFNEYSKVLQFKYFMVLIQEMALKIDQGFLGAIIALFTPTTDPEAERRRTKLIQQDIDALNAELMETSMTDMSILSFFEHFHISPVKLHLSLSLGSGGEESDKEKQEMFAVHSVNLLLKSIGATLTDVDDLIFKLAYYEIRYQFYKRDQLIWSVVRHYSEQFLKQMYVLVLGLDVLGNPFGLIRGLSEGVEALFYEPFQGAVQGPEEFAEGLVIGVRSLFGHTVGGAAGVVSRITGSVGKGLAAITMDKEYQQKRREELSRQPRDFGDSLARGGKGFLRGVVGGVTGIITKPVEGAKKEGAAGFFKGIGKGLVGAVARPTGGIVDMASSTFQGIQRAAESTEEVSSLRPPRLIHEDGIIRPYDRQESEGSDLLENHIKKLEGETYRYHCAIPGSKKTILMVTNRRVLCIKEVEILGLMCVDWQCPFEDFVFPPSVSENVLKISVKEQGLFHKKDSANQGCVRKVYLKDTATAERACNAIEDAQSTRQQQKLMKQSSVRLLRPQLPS
UniProt Q96JC1: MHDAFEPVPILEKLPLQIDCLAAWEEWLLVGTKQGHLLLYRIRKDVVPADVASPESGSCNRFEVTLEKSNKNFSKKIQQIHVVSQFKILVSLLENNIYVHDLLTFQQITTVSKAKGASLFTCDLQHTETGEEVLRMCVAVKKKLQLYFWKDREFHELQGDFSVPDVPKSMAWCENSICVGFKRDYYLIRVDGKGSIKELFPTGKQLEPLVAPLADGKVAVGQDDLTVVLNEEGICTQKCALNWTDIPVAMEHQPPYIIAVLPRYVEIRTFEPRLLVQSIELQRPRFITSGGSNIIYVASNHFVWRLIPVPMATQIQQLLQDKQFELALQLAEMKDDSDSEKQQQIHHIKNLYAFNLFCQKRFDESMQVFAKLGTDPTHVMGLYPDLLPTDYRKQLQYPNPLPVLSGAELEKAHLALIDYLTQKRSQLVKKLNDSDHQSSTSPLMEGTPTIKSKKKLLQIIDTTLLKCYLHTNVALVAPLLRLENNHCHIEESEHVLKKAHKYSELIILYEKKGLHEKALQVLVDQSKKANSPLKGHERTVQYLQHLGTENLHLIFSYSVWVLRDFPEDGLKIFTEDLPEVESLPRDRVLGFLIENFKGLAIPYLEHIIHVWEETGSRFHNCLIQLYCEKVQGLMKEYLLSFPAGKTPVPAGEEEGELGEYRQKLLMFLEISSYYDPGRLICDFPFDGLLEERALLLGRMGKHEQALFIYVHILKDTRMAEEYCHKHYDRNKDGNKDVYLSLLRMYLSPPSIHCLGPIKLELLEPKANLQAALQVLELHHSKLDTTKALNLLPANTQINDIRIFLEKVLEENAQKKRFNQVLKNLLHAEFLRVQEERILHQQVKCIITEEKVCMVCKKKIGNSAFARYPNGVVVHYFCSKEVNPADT
UniProt O00258: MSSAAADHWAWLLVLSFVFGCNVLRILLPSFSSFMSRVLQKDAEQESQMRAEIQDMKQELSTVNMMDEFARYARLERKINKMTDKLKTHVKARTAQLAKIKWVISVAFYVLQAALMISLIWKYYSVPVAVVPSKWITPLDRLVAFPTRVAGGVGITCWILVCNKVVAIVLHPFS
UniProt Q5MNZ6: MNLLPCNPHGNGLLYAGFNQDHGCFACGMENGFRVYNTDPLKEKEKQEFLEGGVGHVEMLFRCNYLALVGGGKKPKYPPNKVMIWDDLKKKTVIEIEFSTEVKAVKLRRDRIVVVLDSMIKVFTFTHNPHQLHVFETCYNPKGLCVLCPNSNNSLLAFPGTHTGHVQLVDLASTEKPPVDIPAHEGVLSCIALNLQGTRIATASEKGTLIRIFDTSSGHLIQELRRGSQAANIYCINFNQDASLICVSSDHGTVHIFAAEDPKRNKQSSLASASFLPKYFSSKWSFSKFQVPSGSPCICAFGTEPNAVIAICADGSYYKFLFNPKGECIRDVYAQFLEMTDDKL
UniProt Q86Y07: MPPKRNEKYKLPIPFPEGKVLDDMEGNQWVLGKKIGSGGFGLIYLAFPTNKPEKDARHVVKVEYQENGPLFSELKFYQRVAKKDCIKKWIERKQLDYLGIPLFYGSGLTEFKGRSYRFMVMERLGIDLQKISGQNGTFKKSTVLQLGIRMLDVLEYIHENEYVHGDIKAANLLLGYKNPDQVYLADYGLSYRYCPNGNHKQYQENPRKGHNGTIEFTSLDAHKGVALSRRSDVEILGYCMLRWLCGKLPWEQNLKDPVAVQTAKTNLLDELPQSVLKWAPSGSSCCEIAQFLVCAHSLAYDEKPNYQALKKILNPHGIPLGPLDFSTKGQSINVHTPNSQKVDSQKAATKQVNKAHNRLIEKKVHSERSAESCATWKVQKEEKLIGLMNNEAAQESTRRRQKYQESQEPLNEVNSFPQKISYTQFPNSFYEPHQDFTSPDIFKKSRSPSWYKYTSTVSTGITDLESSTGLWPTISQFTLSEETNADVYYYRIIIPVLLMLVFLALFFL

[1] = compound: C/C(=N\NC(=O)C1=CC(=CC=C1)S(=O)(=O)N2CCOCC2)/C3=C(C=CC(=C3)Cl)O
Procedure, shortened: as §1

[2] = compound: C1=CC(=CC=C1C2=NC3=C(N2)C=C(C=C3)C(=O)N)OC4=CC=C(C=C4)Cl
Procedure, shortened: as §1

[3] = compound: C1=CC2=C(C=CC(=C2)/C=C\3/C(=O)NC(=NCC4=CC=CS4)S3)N=C1
Procedure, shortened: as §1

[4] = compound: C1=CC2=NC=CN=C2C=C1/C=C/3\C(=O)NC(=O)S3
Procedure, shortened: as §1

[5] = compound: C1=CC=C(C=C1)C2=NC(=C(N2)C3=CC=NC=C3)C4=CC(=C(C=C4)Cl)O
Procedure, shortened: as §1

[6] = compound: C1=CC=C2C(=C1)C3=NNC4=CC=CC(=C43)C2=O
Procedure, shortened: as §1

[7] = compound: C1CCN(C1)C(=O)NC2=CC=CC(=C2)NC3=NC=C(C(=N3)NCCC4=CN=CN4)Br
Procedure, shortened: as §1

[8] = compound: C1CN(CCC1(CC2=CC=C(C=C2)Cl)N)C3=NC=NC4=C3C=CN4
Procedure, shortened: as §1

IRAK-1-4 Inhibitor I = compound: C1COCCN1CCN2C3=CC=CC=C3N=C2NC(=O)C4=CC(=CC=C4)[N+](=O)[O-] [IRAK-1-4 Inhibitor I]
Procedure, shortened: as §1

Measured: log2 fold change

VRK3 (UniProt Q8IV63)
inactive: erlotinib 0.004 | [1] -0.019 | [2] -0.006 | [3] 0.063 | [4] 0.021 | [5] -0.008 | [6] 0.014 | [7] -0.024 | [8] -0.007 | IRAK-1-4 Inhibitor I -0.021

WDR92 (UniProt Q96MX6)
inactive: erlotinib -0.007 | [1] 0.049 | [2] -0.006 | [3] 0.017 | [4] -0.02 | [5] -0.025 | [6] -0.049 | [7] -0.002 | [8] -0.002 | IRAK-1-4 Inhibitor I 0.01

VPS26A (UniProt O75436)
inactive: erlotinib -0.014 | [1] -0.017 | [2] 0.008 | [3] -0.002 | [4] 0.001 | [5] -0.019 | [6] 0.004 | [7] -0.001 | [8] 0.035 | IRAK-1-4 Inhibitor I 0.005

VPS37A (UniProt Q8NEZ2)
inactive: erlotinib 0.027 | [1] -0.07 | [2] 0.034 | [3] -0.023 | [4] -0.072 | [5] -0.011 | [6] -0.011 | [7] -0.041 | [8] 0.009 | IRAK-1-4 Inhibitor I -0.005

WIPF1 isoform 3 (UniProt O43516)
inactive: erlotinib -0.026 | [1] 0.04 | [2] 0.02 | [3] -0.012 | [4] -0.001 | [5] 0.076 | [6] -0.031 | [7] -0.005 | [8] -0.021 | IRAK-1-4 Inhibitor I 0.094

WBP4 (UniProt O75554)
inactive: erlotinib -0.036 | [1] -0.104 | [2] 0.042 | [3] 0.039 | [4] -0.026 | [5] 0.01 | [6] 0.008 | [7] -0.013 | [8] 0.017 | IRAK-1-4 Inhibitor I 0.027

WDR74 (UniProt Q6RFH5)
inactive: erlotinib 0.025 | [1] 0.011 | [2] -0.016 | [3] -0.026 | [4] -0.015 | [5] -0.069 | [6] 0.019 | [7] -0.034 | [8] 0.063 | IRAK-1-4 Inhibitor I 0.033

WDSUB1 (UniProt Q8N9V3)
inactive: erlotinib 0.006 | [1] 0.035 | [2] 0.013 | [3] -0.003 | [4] 0.011 | [5] 0.004 | [6] 0.012 | [7] 0.008 | [8] 0.027 | IRAK-1-4 Inhibitor I 0

VPS26B (UniProt Q4G0F5)
inactive: erlotinib 0.002 | [1] -0.039 | [2] 0.014 | [3] 0.011 | [4] 0.018 | [5] -0.019 | [6] -0.027 | [7] -0.016 | [8] -0.01 | IRAK-1-4 Inhibitor I 0.015

VPS13A (UniProt Q96RL7)
inactive: erlotinib -0.02 | [1] -0.004 | [2] 0.055 | [3] 0.034 | [4] -0.074 | [5] 0.007 | [6] -0.008 | [7] -0.002 | [8] -0.118 | IRAK-1-4 Inhibitor I 0.01

VRK1 (UniProt Q99986)
inactive: erlotinib 0.009 | [1] -0.05 | [2] 0.002 | [3] 0.049 | [4] 0.015 | [5] 0.024 | [6] -0.02 | [7] 0 | [8] 0.02 | IRAK-1-4 Inhibitor I -0.02

VPS25 (UniProt Q9BRG1)
inactive: erlotinib 0.022 | [1] 0.078 | [2] 0.005 | [3] 0.026 | [4] -0.004 | [5] -0.039 | [6] -0.035 | [7] 0.038 | [8] 0.037 | IRAK-1-4 Inhibitor I 0.015

WDR34 (UniProt Q96EX3)
inactive: erlotinib 0.049 | [1] -0.025 | [2] 0.021 | [3] -0.001 | [4] -0.008 | [5] -0.025 | [6] 0.035 | [7] -0.019 | [8] -0.012 | IRAK-1-4 Inhibitor I -0.027

WDHD1 (UniProt O75717)
inactive: erlotinib 0.013 | [1] 0.025 | [2] -0.004 | [3] 0.019 | [4] 0.002 | [5] 0.006 | [6] -0.005 | [7] 0 | [8] 0.025 | IRAK-1-4 Inhibitor I -0.017

WDR44 (UniProt Q5JSH3)
inactive: erlotinib -0.012 | [1] 0 | [2] 0.02 | [3] -0.013 | [4] -0.008 | [5] 0.004 | [6] -0.011 | [7] -0.005 | [8] 0.001 | IRAK-1-4 Inhibitor I 0.002

VTA1 (UniProt Q9NP79)
inactive: erlotinib 0 | [1] 0.003 | [2] 0.001 | [3] 0.003 | [4] 0.011 | [5] 0.023 | [6] 0.025 | [7] 0.026 | [8] -0.008 | IRAK-1-4 Inhibitor I -0.014

VPS13C (UniProt Q709C8)
inactive: erlotinib -0.007 | [1] -0.003 | [2] 0.038 | [3] 0.008 | [4] 0.017 | [5] -0.013 | [6] -0.021 | [7] 0.042 | [8] -0.012 | IRAK-1-4 Inhibitor I 0.004

WDR46 (UniProt O15213)
inactive: erlotinib 0.028 | [1] -0.068 | [2] -0.079 | [3] 0.002 | [4] -0.002 | [5] -0.011 | [6] 0.051 | [7] 0.07 | [8] 0.018 | IRAK-1-4 Inhibitor I 0.011

VSIR (UniProt Q9H7M9)
inactive: erlotinib -0.05 | [1] -0.048 | [2] 0.038 | [3] 0.097 | [4] -0.022 | [5] 0.054 | [6] -0.167 | [7] -0.023 | [8] -0.007 | IRAK-1-4 Inhibitor I 0.008

VPS39 (UniProt Q96JC1)
inactive: erlotinib 0.015 | [1] -0.022 | [2] -0.005 | [3] -0.003 | [4] -0.002 | [5] 0.015 | [6] -0.007 | [7] -0.034 | [8] 0.031 | IRAK-1-4 Inhibitor I 0.019

WRB (UniProt O00258)
inactive: erlotinib -0.043 | [1] 0.208 | [2] 0.027 | [3] 0.002 | [4] -0.009 | [5] -0.002 | [6] 0.049 | [7] 0.051 | [8] -0.064 | IRAK-1-4 Inhibitor I 0.101

2 successive entries already listed:
VPS13C (UniProt Q709C8)
inactive: erlotinib -0.007 | [1] -0.003 | [2] 0.038 | [3] 0.008 | [4] 0.017 | [5] -0.013 | [6] -0.021 | [7] 0.042 | [8] -0.012 | IRAK-1-4 Inhibitor I 0.004

WDR46 (UniProt O15213)
inactive: erlotinib 0.028 | [1] -0.068 | [2] -0.079 | [3] 0.002 | [4] -0.002 | [5] -0.011 | [6] 0.051 | [7] 0.07 | [8] 0.018 | IRAK-1-4 Inhibitor I 0.011

Remaining list, next part

WDR48 (UniProt Q8TAF3)
inactive: erlotinib -0.001 | [1] -0.032 | [2] 0.036 | [3] -0.003 | [4] -0.005 | [5] -0.015 | [6] -0.009 | [7] 0.001 | [8] -0.01 | IRAK-1-4 Inhibitor I -0.001

WDR12 (UniProt Q9GZL7)
inactive: erlotinib -0.017 | [1] 0.013 | [2] 0.01 | [3] -0.02 | [4] -0.009 | [5] 0.012 | [6] 0.009 | [7] -0.012 | [8] 0.005 | IRAK-1-4 Inhibitor I 0

WNK1 isoform 7 (UniProt Q9H4A3)
inactive: erlotinib -0.016 | [1] -0.03 | [2] 0.037 | [3] 0 | [4] -0.026 | [5] -0.006 | [6] 0.011 | [7] -0.005 | [8] -0.006 | IRAK-1-4 Inhibitor I -0.012

WDR45B (UniProt Q5MNZ6)
inactive: erlotinib -0.016 | [1] 0 | [2] 0.075 | [3] -0.024 | [4] 0.034 | [5] -0.007 | [6] 0.036 | [7] 0.01 | [8] 0.022 | IRAK-1-4 Inhibitor I 0.006

WDFY1 (UniProt Q8IWB7)
inactive: erlotinib -0.016 | [1] -0.014 | [2] 0.073 | [3] -0.006 | [4] -0.013 | [5] -0.011 | [6] 0.019 | [7] -0.028 | [8] -0.016 | IRAK-1-4 Inhibitor I 0.023

WDR20 isoform 7 (UniProt Q8TBZ3)
inactive: erlotinib -0.001 | [1] -0.105 | [2] 0.043 | [3] 0.04 | [4] -0.117 | [5] 0.094 | [6] -0.016 | [7] -0.05 | [8] 0.092 | IRAK-1-4 Inhibitor I 0.026

VRK2 (UniProt Q86Y07)
inactive: erlotinib 0.04 | [1] 0.039 | [2] 0.113 | [3] -0.058 | [4] -0.056 | [5] 0 | [6] 0.064 | [7] 0.064 | [8] 0.196 | IRAK-1-4 Inhibitor I 0.049

WARS2 (UniProt Q9UGM6)
inactive: erlotinib -0.034 | [1] -0.01 | [2] 0.038 | [3] 0.009 | [4] 0.03 | [5] 0.002 | [6] -0.041 | [7] -0.022 | [8] -0.007 | IRAK-1-4 Inhibitor I -0.011

WDR81 (UniProt Q562E7)
inactive: erlotinib 0.029 | [1] -0.028 | [2] 0.028 | [3] 0.012 | [4] 0 | [5] 0.03 | [6] -0.011 | [7] -0.019 | [8] 0.04 | IRAK-1-4 Inhibitor I 0.001

Reference: the supplement of paper PMC10849652
